Measured values from the supplement of paper PMC10849652.
The list shows a part of the results.

By UniProt entry, the sequences of proteins in these tests, tags left out. Where a name states a change or a piece, a line headed by the entry shows the natural chain unless it says otherwise.
UniProt Q9NTG7: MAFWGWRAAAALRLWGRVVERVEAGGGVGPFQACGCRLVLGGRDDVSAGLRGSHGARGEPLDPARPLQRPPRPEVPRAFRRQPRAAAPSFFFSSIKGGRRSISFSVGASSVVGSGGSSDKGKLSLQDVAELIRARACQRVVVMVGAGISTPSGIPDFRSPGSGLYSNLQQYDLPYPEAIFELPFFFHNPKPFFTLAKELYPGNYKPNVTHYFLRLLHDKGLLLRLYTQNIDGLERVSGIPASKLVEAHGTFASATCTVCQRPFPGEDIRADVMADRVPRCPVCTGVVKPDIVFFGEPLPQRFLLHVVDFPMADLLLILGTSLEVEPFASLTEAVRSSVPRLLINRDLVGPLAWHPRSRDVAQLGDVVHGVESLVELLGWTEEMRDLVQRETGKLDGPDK
UniProt Q9Y6P5: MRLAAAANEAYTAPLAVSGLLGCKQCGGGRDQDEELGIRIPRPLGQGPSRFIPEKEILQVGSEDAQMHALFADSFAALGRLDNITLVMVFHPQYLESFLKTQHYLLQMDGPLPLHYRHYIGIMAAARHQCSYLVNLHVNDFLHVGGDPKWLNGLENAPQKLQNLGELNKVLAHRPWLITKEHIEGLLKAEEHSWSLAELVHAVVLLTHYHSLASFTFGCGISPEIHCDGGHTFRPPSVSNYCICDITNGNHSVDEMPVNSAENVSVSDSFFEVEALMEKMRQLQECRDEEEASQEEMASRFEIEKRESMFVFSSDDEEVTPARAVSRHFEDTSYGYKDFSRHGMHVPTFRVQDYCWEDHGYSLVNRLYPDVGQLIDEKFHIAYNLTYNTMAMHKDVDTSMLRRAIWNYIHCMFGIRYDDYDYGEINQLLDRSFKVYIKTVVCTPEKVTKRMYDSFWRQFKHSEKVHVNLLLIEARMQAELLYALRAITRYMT
UniProt Q6IA17: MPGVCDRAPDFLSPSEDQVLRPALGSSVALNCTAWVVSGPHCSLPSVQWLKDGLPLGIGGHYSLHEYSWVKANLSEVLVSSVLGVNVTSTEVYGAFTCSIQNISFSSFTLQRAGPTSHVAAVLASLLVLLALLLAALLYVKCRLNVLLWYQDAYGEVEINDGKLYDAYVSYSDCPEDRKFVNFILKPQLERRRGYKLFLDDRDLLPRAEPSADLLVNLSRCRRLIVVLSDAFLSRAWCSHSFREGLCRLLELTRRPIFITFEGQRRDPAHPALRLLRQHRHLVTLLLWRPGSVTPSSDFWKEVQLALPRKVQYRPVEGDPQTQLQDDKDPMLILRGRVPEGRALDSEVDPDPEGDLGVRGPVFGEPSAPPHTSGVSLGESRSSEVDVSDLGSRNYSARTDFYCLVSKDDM
UniProt Q9NRA2: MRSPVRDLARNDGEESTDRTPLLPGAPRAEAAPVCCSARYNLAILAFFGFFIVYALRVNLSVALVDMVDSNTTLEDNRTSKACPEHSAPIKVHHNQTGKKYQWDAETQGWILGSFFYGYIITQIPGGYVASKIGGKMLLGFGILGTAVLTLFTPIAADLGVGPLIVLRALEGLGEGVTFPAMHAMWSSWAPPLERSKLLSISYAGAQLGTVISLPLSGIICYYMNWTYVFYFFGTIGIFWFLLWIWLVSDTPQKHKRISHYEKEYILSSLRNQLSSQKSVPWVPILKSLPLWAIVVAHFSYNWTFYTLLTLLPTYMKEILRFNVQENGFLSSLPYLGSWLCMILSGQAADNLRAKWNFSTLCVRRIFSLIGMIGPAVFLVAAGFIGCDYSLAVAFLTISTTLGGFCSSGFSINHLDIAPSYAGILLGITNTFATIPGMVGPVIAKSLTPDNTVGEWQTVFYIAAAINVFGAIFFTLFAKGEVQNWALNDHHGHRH
UniProt Q9UPS6, whole entry, looked up: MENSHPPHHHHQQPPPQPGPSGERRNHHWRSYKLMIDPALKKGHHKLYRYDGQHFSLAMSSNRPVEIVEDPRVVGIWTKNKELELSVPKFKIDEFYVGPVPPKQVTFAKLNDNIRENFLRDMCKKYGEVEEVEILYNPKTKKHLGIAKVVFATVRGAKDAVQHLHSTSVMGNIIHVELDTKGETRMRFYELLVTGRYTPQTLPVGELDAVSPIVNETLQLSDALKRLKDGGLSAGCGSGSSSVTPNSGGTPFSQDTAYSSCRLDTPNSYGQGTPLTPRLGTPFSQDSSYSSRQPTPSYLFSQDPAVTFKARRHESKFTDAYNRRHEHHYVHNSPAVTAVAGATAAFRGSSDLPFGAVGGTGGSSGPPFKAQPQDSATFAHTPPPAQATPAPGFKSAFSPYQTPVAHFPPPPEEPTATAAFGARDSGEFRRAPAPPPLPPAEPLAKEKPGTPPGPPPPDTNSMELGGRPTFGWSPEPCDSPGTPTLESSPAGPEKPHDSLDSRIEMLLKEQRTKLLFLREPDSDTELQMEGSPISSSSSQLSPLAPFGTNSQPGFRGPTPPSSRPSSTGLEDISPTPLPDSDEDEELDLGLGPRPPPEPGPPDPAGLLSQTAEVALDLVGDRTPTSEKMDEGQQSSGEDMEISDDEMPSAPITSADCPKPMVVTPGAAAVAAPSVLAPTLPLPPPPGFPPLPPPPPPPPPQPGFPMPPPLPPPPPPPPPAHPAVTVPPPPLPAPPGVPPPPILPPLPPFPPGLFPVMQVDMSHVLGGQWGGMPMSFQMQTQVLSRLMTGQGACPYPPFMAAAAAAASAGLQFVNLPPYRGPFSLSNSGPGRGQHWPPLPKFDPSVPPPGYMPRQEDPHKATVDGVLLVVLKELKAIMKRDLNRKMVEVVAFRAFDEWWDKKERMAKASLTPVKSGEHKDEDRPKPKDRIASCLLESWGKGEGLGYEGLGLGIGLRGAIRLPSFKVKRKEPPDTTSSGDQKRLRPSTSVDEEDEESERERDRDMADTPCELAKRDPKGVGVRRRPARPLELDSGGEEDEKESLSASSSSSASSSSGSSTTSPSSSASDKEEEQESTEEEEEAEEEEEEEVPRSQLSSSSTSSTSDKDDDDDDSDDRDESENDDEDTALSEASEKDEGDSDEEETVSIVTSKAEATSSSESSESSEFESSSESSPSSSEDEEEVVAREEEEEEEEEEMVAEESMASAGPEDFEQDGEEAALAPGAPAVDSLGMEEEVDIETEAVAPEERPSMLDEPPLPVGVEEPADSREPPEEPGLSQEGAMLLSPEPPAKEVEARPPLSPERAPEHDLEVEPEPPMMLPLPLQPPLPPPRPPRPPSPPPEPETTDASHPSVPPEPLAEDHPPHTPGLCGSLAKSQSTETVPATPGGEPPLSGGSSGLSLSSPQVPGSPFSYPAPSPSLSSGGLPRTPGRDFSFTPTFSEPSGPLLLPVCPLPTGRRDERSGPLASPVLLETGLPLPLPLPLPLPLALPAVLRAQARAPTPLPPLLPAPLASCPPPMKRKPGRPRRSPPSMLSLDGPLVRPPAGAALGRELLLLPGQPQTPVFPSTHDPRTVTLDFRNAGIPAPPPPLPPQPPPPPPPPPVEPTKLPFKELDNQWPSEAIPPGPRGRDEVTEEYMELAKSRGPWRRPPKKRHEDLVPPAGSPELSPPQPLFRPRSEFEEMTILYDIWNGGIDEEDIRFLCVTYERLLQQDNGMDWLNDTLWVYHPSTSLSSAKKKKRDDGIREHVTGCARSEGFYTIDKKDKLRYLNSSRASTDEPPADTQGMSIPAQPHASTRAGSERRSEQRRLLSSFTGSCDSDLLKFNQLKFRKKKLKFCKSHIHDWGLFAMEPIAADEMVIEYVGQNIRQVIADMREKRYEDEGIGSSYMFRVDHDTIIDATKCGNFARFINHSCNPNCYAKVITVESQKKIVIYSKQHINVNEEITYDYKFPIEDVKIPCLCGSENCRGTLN
UniProt Q8NDZ2: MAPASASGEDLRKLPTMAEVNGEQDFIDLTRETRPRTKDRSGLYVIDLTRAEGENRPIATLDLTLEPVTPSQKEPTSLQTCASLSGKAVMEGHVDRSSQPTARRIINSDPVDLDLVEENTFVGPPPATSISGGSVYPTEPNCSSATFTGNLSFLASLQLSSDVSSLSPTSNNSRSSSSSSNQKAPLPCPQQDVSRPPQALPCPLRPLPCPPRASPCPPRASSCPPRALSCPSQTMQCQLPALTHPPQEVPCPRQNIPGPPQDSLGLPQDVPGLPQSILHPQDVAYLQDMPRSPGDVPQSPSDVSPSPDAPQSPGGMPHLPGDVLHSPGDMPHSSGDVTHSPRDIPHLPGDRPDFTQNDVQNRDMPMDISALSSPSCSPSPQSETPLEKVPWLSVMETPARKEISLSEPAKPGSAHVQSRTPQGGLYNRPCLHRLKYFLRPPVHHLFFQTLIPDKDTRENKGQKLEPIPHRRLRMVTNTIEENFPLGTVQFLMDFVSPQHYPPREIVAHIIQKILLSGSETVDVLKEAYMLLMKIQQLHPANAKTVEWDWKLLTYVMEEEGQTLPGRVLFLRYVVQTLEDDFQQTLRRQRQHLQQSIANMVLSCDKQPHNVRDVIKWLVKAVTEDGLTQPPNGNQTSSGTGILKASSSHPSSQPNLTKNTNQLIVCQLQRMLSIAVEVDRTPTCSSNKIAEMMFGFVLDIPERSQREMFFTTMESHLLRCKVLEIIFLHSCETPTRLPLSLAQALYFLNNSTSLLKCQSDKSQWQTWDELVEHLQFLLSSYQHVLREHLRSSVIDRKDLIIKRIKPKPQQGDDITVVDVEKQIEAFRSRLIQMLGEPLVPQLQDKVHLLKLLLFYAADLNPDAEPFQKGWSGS
UniProt Q9NP50: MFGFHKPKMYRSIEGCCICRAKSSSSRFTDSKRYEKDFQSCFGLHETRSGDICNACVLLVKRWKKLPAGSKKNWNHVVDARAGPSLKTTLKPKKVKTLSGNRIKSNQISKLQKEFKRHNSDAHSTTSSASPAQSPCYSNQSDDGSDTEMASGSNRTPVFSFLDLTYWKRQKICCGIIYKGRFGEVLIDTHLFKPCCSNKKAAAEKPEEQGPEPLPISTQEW
UniProt P12755: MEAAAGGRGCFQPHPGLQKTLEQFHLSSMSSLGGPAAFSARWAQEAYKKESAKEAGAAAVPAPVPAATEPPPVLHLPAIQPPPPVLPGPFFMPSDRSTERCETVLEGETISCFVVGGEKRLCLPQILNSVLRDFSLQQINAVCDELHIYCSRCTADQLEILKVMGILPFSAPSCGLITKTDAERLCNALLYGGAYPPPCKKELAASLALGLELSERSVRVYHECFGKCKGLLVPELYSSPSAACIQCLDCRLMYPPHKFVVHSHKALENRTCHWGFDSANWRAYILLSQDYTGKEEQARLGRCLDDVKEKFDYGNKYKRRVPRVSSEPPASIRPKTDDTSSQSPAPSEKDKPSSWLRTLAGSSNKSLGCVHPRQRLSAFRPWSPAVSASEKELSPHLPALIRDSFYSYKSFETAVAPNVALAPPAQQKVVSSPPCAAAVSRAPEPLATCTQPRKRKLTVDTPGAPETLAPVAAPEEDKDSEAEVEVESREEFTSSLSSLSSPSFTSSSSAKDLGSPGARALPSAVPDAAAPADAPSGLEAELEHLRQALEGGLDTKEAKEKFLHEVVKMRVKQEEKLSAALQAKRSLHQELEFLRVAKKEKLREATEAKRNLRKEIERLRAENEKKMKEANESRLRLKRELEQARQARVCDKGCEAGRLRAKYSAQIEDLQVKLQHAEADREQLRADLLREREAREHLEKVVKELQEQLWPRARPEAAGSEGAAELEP
UniProt P51688: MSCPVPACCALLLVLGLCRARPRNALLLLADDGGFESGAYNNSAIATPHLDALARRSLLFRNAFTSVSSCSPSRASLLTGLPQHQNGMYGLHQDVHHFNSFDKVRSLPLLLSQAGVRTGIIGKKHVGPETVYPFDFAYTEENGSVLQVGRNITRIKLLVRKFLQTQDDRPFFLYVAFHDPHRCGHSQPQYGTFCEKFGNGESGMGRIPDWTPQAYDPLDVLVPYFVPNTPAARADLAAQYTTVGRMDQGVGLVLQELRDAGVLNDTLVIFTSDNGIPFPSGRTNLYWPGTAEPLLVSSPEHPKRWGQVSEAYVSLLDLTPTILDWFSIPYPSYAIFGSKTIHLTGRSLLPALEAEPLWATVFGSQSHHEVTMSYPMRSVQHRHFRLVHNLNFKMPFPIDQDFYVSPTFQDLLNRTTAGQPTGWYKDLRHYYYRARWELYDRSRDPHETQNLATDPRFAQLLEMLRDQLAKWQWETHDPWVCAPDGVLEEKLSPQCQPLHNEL
UniProt Q8TBK2: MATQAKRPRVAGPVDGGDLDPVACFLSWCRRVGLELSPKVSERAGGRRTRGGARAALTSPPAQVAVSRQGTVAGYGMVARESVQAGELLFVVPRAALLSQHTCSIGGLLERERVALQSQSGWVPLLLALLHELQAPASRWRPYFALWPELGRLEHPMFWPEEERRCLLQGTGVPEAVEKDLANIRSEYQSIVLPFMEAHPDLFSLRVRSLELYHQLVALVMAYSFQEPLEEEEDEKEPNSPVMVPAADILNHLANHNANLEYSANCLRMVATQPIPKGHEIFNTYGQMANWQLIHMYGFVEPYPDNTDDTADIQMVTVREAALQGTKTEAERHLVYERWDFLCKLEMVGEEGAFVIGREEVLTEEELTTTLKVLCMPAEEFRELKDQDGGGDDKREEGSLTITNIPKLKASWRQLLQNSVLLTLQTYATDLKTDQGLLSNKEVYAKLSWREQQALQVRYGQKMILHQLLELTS

Columns and labels:
Assay in all cases: log2 fold change, soluble protein after heating vs DMSO (PISA); higher = thermal stabilisation; K562 lysate, 10 uM; active = over 0.2 and 3.5 SD of the protein, either way, in both replicates (recomputed)
lapatinib = compound: CS(=O)(=O)CCNCc1ccc(-c2ccc3ncnc(Nc4ccc(OCc5cccc(F)c5)c(Cl)c4)c3c2)o1 [lapatinib]
How it was run: (§1)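 Log-two fold change in thermal stability relative to solvent controls is reported from duplicates. For each sample, crude K562 extract from dounce-homogenised pellets in PBS pH 7.4 with 1 mM MgCl2, at 1 mg/mL protein, was treated with 10 μM compound for 30 min. Aliquots heated for 3 min across 48°C-58°C were pooled, brought to 0.5% NP-40 at 4°C and cleared at 21,000xg for 90 min. The supernatant was quantified by TMTpro 16plex LC-MS/MS with channel sums equalised.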

crizotinib = compound: C[C@@H](Oc1cc(-c2cnn(C3CCNCC3)c2)cnc1N)c1c(Cl)ccc(F)c1Cl [crizotinib]
How it was run: as §1

[1] = compound: C[C@H](C1=CC=C(C=C1)C(=O)NC2=C3C=CNC3=NC=C2)N
How it was run: as §1

duvelisib = compound: C[C@H](Nc1ncnc2nc[nH]c12)c1cc2cccc(Cl)c2c(=O)n1-c1ccccc1 [duvelisib]
How it was run: as §1

gandotinib = compound: Cc1cc(Nc2cc(CN3CCOCC3)c3nc(C)c(Cc4ccc(Cl)cc4F)n3n2)n[nH]1 [gandotinib]
How it was run: as §1

tozasertib = compound: Cc1cc(Nc2cc(N3CCN(C)CC3)nc(Sc3ccc(NC(=O)C4CC4)cc3)n2)n[nH]1 [tozasertib]
How it was run: as §1

doramapimod = compound: Cc1ccc(-n2nc(C(C)(C)C)cc2NC(=O)Nc2ccc(OCCN3CCOCC3)c3ccccc23)cc1 [doramapimod]
How it was run: as §1

[2] = compound: Cc1cccc(CC(=O)N2CCc3c2ccc(-c2cn(C)c4ncnc(N)c24)c3F)n1
How it was run: as §1

pictilisib = compound: CS(=O)(=O)N1CCN(Cc2cc3nc(-c4cccc5[nH]ncc45)nc(N4CCOCC4)c3s2)CC1 [pictilisib]
How it was run: as §1

bafetinib = compound: Cc1ccc(NC(=O)c2ccc(CN3CC[C@H](N(C)C)C3)c(C(F)(F)F)c2)cc1Nc1nccc(-c2cncnc2)n1 [bafetinib]
How it was run: as §1

Measured: log2 fold change

SETX isoform 4 (UniProt Q7Z333)
inactive: lapatinib -0.135 | crizotinib -0.088 | [1] 0.074 | duvelisib 0.083 | gandotinib -0.213 | tozasertib -0.077 | doramapimod -0.009 | [2] 0.069

SIRT3 (UniProt Q9NTG7)
inactive: lapatinib 0.04 | crizotinib -0.015 | duvelisib 0.029 | doramapimod 0.023

SHFL (UniProt Q9NUL5)
inactive: lapatinib 0.044 | pictilisib -0.009 | crizotinib -0.02 | duvelisib 0.031 | tozasertib -0.021 | doramapimod -0.139 | bafetinib 0.066

SLC18B1 (UniProt Q6NT16)
inactive: lapatinib -0.003 | crizotinib 0.021 | [1] 0.023 | gandotinib 0.051 | doramapimod -0.072 | [2] 0.014

SESN1 isoform 2 (UniProt Q9Y6P5)
inactive: lapatinib -0.449 | pictilisib 0.056 | crizotinib -0.318 | [1] -0.095 | gandotinib -0.244 | tozasertib 0.061 | doramapimod -0.056 | bafetinib -0.056 | [2] -0.006

SLC12A7 (UniProt Q9Y666)
inactive: lapatinib -0.055 | [1] -0.227 | gandotinib 0.116 | [2] 0.123

SIAH1 isoform 2 (UniProt Q8IUQ4)
inactive: lapatinib -0.016 | crizotinib 0.062 | doramapimod 0.011

SIGIRR (UniProt Q6IA17)
inactive: lapatinib 0.04 | [1] 0.146 | gandotinib 0.081 | tozasertib -0.19 | [2] 0.003

SH2B1 (UniProt Q9NRF2)
inactive: lapatinib 0.113 | pictilisib -0.287 | crizotinib 0.014 | [1] -0.076 | duvelisib 0.102 | gandotinib 0.054 | doramapimod 0 | bafetinib 0.085 | [2] -0.038

SGSM3 isoform 2 (UniProt Q96HU1)
inactive: lapatinib -0.001 | crizotinib 0.019 | doramapimod 0.019

SLC17A5 (UniProt Q9NRA2)
inactive: lapatinib -0.073 | pictilisib 0.231 | [1] -0.041 | duvelisib -0.087 | gandotinib 0.101 | tozasertib -0.008 | bafetinib 0.004 | [2] 0.05

SKOR2 (UniProt Q2VWA4)
inactive: lapatinib -0.041 | crizotinib -0.106 | [1] -0.388 | duvelisib 0.097 | gandotinib 0.275 | tozasertib -0.019 | doramapimod 0.184 | [2] 0.338

SETD1B (UniProt Q9UPS6)
inactive: pictilisib -0.026 | crizotinib -0.023 | [1] 0.081 | duvelisib 0.102 | gandotinib -0.214 | doramapimod 0.127 | bafetinib 0.001 | [2] 0.156

SERPINB7 (UniProt O75635)
inactive: crizotinib -0.349 | doramapimod -0.055

SH2B3 (UniProt Q9UQQ2)
inactive: crizotinib -0.034 | tozasertib 0.14 | doramapimod 0.057

SERAC1 (UniProt Q96JX3)
inactive: pictilisib -0.018 | [1] -0.074 | duvelisib 0.145 | gandotinib 0.052 | tozasertib -0.089 | bafetinib -0.276 | [2] 0.127

SESTD1 (UniProt Q86VW0)
inactive: crizotinib -0.047 | doramapimod 0.082

SHMT2 (UniProt G3V2Y4)
inactive: pictilisib -0.057 | bafetinib 0.011

SIK3 (UniProt Q9Y2K2)
inactive: crizotinib 0.04 | [1] 0.236 | duvelisib 0.022 | gandotinib 0.245 | tozasertib -0.137 | doramapimod -0.021 | [2] -0.028

SIMC1 (UniProt Q8NDZ2)
inactive: pictilisib -0.25 | crizotinib -0.014 | [1] -0.134 | gandotinib 0.055 | tozasertib 0.261 | doramapimod 0.171 | bafetinib -0.035 | [2] 0.123

SH2D1B (UniProt O14796)
inactive: crizotinib -0.032 | [1] -0.049 | duvelisib 0.003 | gandotinib 0.023 | tozasertib -0.077 | doramapimod -0.001 | [2] 0.105

Random excerpt: two records from the list
SH2D1B (UniProt O14796)
inactive: crizotinib -0.032 | [1] -0.049 | duvelisib 0.003 | gandotinib 0.023 | tozasertib -0.077 | doramapimod -0.001 | [2] 0.105

SESTD1 (UniProt Q86VW0)
inactive: crizotinib -0.047 | doramapimod 0.082

(cont.)

SHC1 (UniProt P29353)
inactive: [1] 0.029 | gandotinib -0.033 | [2] 0.009

SH2D3A (UniProt Q9BRG2)
inactive: pictilisib 0.043 | bafetinib 0.034

SLAIN2 (UniProt D6RIF6)
inactive: crizotinib 0.073 | doramapimod -0.115

SET isoform 3 (UniProt Q01105)
inactive: [1] 0.079 | duvelisib 0.193 | gandotinib 0.177 | tozasertib 0.042 | [2] 0.053

SHQ1 (UniProt Q6PI26)
inactive: pictilisib -0.013 | crizotinib 0.012 | [1] 0.038 | duvelisib -0.271 | gandotinib -0.313 | doramapimod 0.038 | bafetinib -0.087 | [2] -0.073

SGO2 (UniProt Q562F6)
inactive: pictilisib 0.001 | crizotinib -0.029 | tozasertib -0.107 | doramapimod 0.043 | bafetinib -0.081

SIK2 (UniProt Q9H0K1)
inactive: [1] 0.166 | gandotinib 0.051 | tozasertib -0.082 | [2] -0.231

SIN3B (UniProt O75182)
inactive: crizotinib -0.057 | [1] -0.318 | gandotinib 0.116 | tozasertib -0.095 | doramapimod 0.584 | [2] -0.611

SKIL (UniProt P12757)
inactive: [1] 0.009 | gandotinib -0.076 | tozasertib -0.033 | [2] 0.132

SINHCAF (UniProt Q9NP50)
inactive: crizotinib 0 | [1] -0.05 | duvelisib -0.028 | gandotinib -0.155 | doramapimod 0.032 | [2] 0.032

SKI (UniProt P12755)
inactive: [1] 0.134 | gandotinib 0.431 | [2] -0.162

SGSH (UniProt P51688)
inactive: [1] 0.067 | gandotinib 0.043 | [2] 0.133

SETD6 (UniProt Q8TBK2)
inactive: duvelisib 0.233

SFXN4 isoform 3 (UniProt Q6P4A7)
inactive: pictilisib 0.093 | crizotinib -0.022 | [1] -0.348 | gandotinib 0.044 | tozasertib 0.297 | doramapimod 0.09 | bafetinib -0.344 | [2] 0

SERPINA7 (UniProt P05543)
inactive: pictilisib 0.005 | [1] -0.058 | gandotinib 0.019 | tozasertib -0.071 | bafetinib 0.089 | [2] 0.064
